{"source": "PubChem BioAssay AID1053208 (Peter MacCallum Cancer Centre, 2014)", "assay": "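Genes whose silencing cuts survival of bone tumour cells only with doxorubicin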 (primary screen)", "cell system": "mouse osteosarcoma cells, early-passage culture from an engineered mouse model of fibroblastic bone tumour", "knock-down reagent": "siRNA pool against mouse genes, 40 nM", "time to read-out": "about 120 h (48 h before drug, then 72 h with drug)", "conditions": "doxorubicin 100 nM for 72 h, roughly 30-40% inhibitory dose", "read-out": "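Viability read as ATP luminescence after 72 h of 100 nM doxorubicin or none, duplicate wells averaged, scaled to non-targeting siRNA, then expressed as robust z-scores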", "direction": "viability z-score with doxorubicin: higher = more viable cells under doxorubicin; viability z-score without drug: higher = more viable cells with knock-down alone", "active means": "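a pool counts as active when its viability z-score with doxorubicin is -2 or below and its z-score without drug lies between -2 and 2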", "note": "In all, the deposit lists about 17,000 reagents; shown is a part drawn at random. 788 of all reagents (4.7%) count as active. 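Calls rest on z-score classes alone; an extra cut-off of viability at most 70% of control was not applied to them.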 Not all columns of the deposit are shown."}
{"Gene": "Fam107b (GeneID 66540)", "combined z-score class": "no change with or without drug", "viability z-score with doxorubicin": -0.11, "viability z-score without drug": 0.17, "Outcome": "inactive"}
{"Gene": "Or13c7c (GeneID 100040268)", "combined z-score class": "no change with or without drug", "viability z-score with doxorubicin": 1.35, "viability z-score without drug": 0.17, "Outcome": "inactive"}
{"Gene": "Wdr5b (GeneID 69544)", "combined z-score class": "no change with or without drug", "viability z-score with doxorubicin": 1.12, "viability z-score without drug": 0.84, "Outcome": "inactive"}
{"Gene": "Or7g31 (GeneID 258516)", "combined z-score class": "no change with or without drug", "viability z-score with doxorubicin": -0.34, "viability z-score without drug": -0.17, "Outcome": "inactive"}
{"Gene": "2810407A14Rik (GeneID 100039901)", "combined z-score class": "high cell count without drug only", "viability z-score with doxorubicin": 1.91, "viability z-score without drug": 2.19, "Outcome": "inactive"}
{"Gene": "Pde6a (GeneID 225600)", "combined z-score class": "no change with or without drug", "viability z-score with doxorubicin": -0.56, "viability z-score without drug": -1.18, "Outcome": "inactive"}
{"Gene": "Sirpa (GeneID 19261)", "combined z-score class": "no change with or without drug", "viability z-score with doxorubicin": 0.22, "viability z-score without drug": 0.34, "Outcome": "inactive"}
{"Gene": "Tnfrsf17 (GeneID 21935)", "combined z-score class": "no change with or without drug", "viability z-score with doxorubicin": -1.12, "viability z-score without drug": -0.84, "Outcome": "inactive"}
{"Gene": "Cd300c2 (GeneID 140497)", "combined z-score class": "no change with or without drug", "viability z-score with doxorubicin": -0.22, "viability z-score without drug": 0.51, "Outcome": "inactive"}
{"Gene": "Mrpl33 (GeneID 66845)", "combined z-score class": "no change with or without drug", "viability z-score with doxorubicin": 0, "viability z-score without drug": -1.35, "Outcome": "inactive"}
{"Gene": "Dtx4 (GeneID 207521)", "combined z-score class": "no change with or without drug", "viability z-score with doxorubicin": -1.57, "viability z-score without drug": -0.34, "Outcome": "inactive"}
{"Gene": "Chrnb2 (GeneID 11444)", "combined z-score class": "no change with or without drug", "viability z-score with doxorubicin": -1.57, "viability z-score without drug": 0.34, "Outcome": "inactive"}
{"Gene": "Adcyap1r1 (GeneID 11517)", "combined z-score class": "no change with or without drug", "viability z-score with doxorubicin": 0.56, "viability z-score without drug": -0.67, "Outcome": "inactive"}
{"Gene": "Tap1 (GeneID 21354)", "combined z-score class": "no change with or without drug", "viability z-score with doxorubicin": -0.67, "viability z-score without drug": -0.17, "Outcome": "inactive"}
{"Gene": "Mvd (GeneID 192156)", "combined z-score class": "no change with or without drug", "viability z-score with doxorubicin": -0.67, "viability z-score without drug": -1.01, "Outcome": "inactive"}
{"Gene": "Tspan9 (GeneID 109246)", "combined z-score class": "no change with or without drug", "viability z-score with doxorubicin": 0, "viability z-score without drug": 0.17, "Outcome": "inactive"}
{"Gene": "Or4k47 (GeneID 258890)", "combined z-score class": "no change with or without drug", "viability z-score with doxorubicin": -1.46, "viability z-score without drug": -1.18, "Outcome": "inactive"}
{"Gene": "Abcg2 (GeneID 26357)", "combined z-score class": "no change with or without drug", "viability z-score with doxorubicin": -0.45, "viability z-score without drug": 0.51, "Outcome": "inactive"}
{"Gene": "Or52u1 (GeneID 258377)", "combined z-score class": "no change with or without drug", "viability z-score with doxorubicin": 0.11, "viability z-score without drug": -0.17, "Outcome": "inactive"}
{"Gene": "C8a (GeneID 230558)", "combined z-score class": "no change with or without drug", "viability z-score with doxorubicin": 0.79, "viability z-score without drug": 0.51, "Outcome": "inactive"}
{"Gene": "Or5m5 (GeneID 258581)", "combined z-score class": "low cell count without drug only", "viability z-score with doxorubicin": -0.45, "viability z-score without drug": -2.53, "Outcome": "inactive"}
{"Gene": "Zfp998 (GeneID 76803)", "combined z-score class": "high cell count with doxorubicin only", "viability z-score with doxorubicin": 2.02, "viability z-score without drug": 1.35, "Outcome": "inactive"}
{"Gene": "Trmt1 (GeneID 212528)", "combined z-score class": "no change with or without drug", "viability z-score with doxorubicin": -0.45, "viability z-score without drug": 0.51, "Outcome": "inactive"}
{"Gene": "Vtn (GeneID 22370)", "combined z-score class": "no change with or without drug", "viability z-score with doxorubicin": 0.22, "viability z-score without drug": 1.01, "Outcome": "inactive"}
{"Gene": "Sptssa (GeneID 104725)", "combined z-score class": "low cell count with doxorubicin only", "viability z-score with doxorubicin": -2.59, "viability z-score without drug": 0.51, "Outcome": "active"}
{"Gene": "Spire2 (GeneID 234857)", "combined z-score class": "high cell count with doxorubicin only", "viability z-score with doxorubicin": 2.02, "viability z-score without drug": 0.84, "Outcome": "inactive"}
{"Gene": "H2bc4 (GeneID 68024)", "combined z-score class": "no change with or without drug", "viability z-score with doxorubicin": 0.45, "viability z-score without drug": 0.51, "Outcome": "inactive"}
{"Gene": "Psma2 (GeneID 19166)", "combined z-score class": "no change with or without drug", "viability z-score with doxorubicin": -1.57, "viability z-score without drug": -0.51, "Outcome": "inactive"}
